Experimental findings from paper PMC9233675, “Ru(II) photocages enable precise control over enzyme activity with red light” (Nature Communications, 2022) are described below.

The data set can be described thus: Photoejection studies: quantum yield for photosubstitution. It is filed as physicochemical. The following applies: for ΦPS: λirr = 470 nm.

Marks after values point to notes of the source that are not given here.

Take `COc1ccc(/C=C/c2cc[n+]([Ru-4]345([n+]6ccccc6-c6cccc([n+]63)-c3cccc[n+]34)[n+]3c(cc(C(=O)[O-])c4ccccc43)-c3cc(C(=O)[O-])c4ccccc4[n+]35)cn2)c(OC)c1` [Compound 5]: the “Φ(PS) Opti-MEM” value (optical approach, 470 nm) is 0.013 ± 0.002. As to `O=C([O-])c1cc2[n+](c3ccccc13)[Ru-4]13([n+]4ccccc4)([n+]4ccccc4-c4cccc([n+]41)-c1cccc[n+]13)[n+]1c-2cc(C(=O)[O-])c2ccccc21` [Compound 8, [Ru(tpy)(bca)(pyridine)]], under “optical approach, 470 nm”, the “Φ(PS) Opti-MEM” value is recorded as 0.004 ± 0.00005. This compound showed a ΦPS (quantum yield for photosubstitution, 5% DMSO in H2O, optical approach, n = 3) of 0.0059 ± 0.0005. For the compound `COc1ccc(/C=C/c2cc[n+]([Ru-4]345([n+]6ccccc6-c6cccc([n+]63)-c3cccc[n+]34)[n+]3c(cc(C(=O)[O-])c4ccccc43)-c3cc(C(=O)[O-])c4ccccc4[n+]35)cc2)c(OC)c1` [Compound 6], the “Φ(PS) CH3OH” value (CH3OH, 470 nm) was determined as 0.002 ± 0.00005. Besides, the ΦPS (in MeCN by HPLC) is recorded as 0.0081 ± 0.0006 ^f.
